Laboratory results reported in the supplement of paper PMC4683952.
This is one part of the list. No stated cut-off is given here; in the data, active = 2 or more and inactive = the rest. Repeats in this data set agree poorly, so a single value says little.

System: Lgr5 (MarsCy1-Lgr5-EGFP, U2OS)
Assay: cell-surface Lgr5 expression (SCi1 fluorescence, background-subtracted) relative to WT DMSO (fold of DMSO control); higher = more Lgr5 at the plasma membrane
Conditions: U2OS MarsCy1-Lgr5-EGFP stable; treatment time: overnight; library: ActiProbe-5K (TimTec); 25 µM

cell-surface Lgr5 expression, inactive:
Cc1nc(C)c(C#N)c(N)c1Br 1.08
CC(C)N1CCc2c(sc(N)c2C#N)C1 0.985
Cc1nc2cc(S(=O)(=O)C(F)(F)F)ccc2s1 1.26
S=c1oc2ccccc2n1Cn1c(=S)oc2ccccc21 1.1
C1CCN(c2nc(N3CCCCC3)nc(N3CCNCC3)n2)CC1 0.979
O=C(c1ccccc1)n1c(=S)nc2ncccn21 1.04
NC(c1ccccc1)c1cc2ccccc2o1 (centres undefined) 1.26
C#CCOc1ccc(/C=N\n2cnnc2N/N=C/c2ccc(OCC#C)c(OC)c2)cc1OC 1.04
Cc1cn(CC(C)C)c(=O)[nH]c1=O 1.5
Cc1nonc1-c1noc(CCC(=O)O)n1 1.01
N#Cc1c(SCCN2CCOCC2)sc2c(=O)[nH]c(=O)[nH]c12 1.31
Cc1ccc(/C=N\N=C/c2ccc(C)s2)s1 0.991
O=[N+]([O-])c1ccc(-n2ccnc2)c(F)c1 1.08
Cc1ccc(C2=C(C#N)C(N)=C(C#N)C3=CCCC32)c(C)c1 (centres undefined) 1.38
CC(=O)OC(C)(C#CCN1CCCC1)C(C)(C)C (centres undefined) 1.29
C(=Nc1c2ccccc2nc2ccccc12)c1ccco1 1.07
CN(C)CCCN1C(=O)C(O)=C(C(=O)c2cccs2)C1c1cccs1 (centres undefined) 1.21
c1ccc(C2=Nc3ccccc3C(c3ccccc3)(c3ccccc3)N2)cc1 0.867
O=C(O)CN1C(=O)/C(=C\c2ccco2)SC1=S 1.43
C(=N/c1c2ccccc2nc2ccccc12)/c1cccc2c1OCOC2 1.65
CCCCc1ccc(C2C3=C(CC(C)(C)CC3=O)OC3=C2C(=O)CC(C)(C)C3)s1 1.41
O=C(Nc1nccs1)C1CCCCC1 0.996
O=C(NNC(=O)c1ccco1)c1ccco1 0.981
Oc1ccc2ccccc2c1/C=N\N1CCN(C2c3ccccc3-c3ccccc32)CC1 1.01
O=c1[nH]n(CC2COC3(CCCCC3)O2)c(=O)c2ccccc12 (centres undefined) 1.54
Nc1ccc2nn(-c3ccc(F)cc3)nc2c1 0.802
C=CCNC(=S)NNC(=O)C12CC3CC(CC(C3)C1)C2 1.1
c1(/c2c(n[nH]n2)c(/c2c1n[nH]n2)=N\NC(=S)N)=N/NC(=S)N 0.806
c1ccc(-c2csc(N3CCC(c4ccccc4)C3)n2)cc1 (centres undefined) 0.985
Cn1cccc1/C=N/NC(=O)c1cc(C(C)(C)C)n[nH]1 1.27
CC1(C)CC2(C)OC(=O)N(N)C2(C)c2ccccc21 (centres undefined) 1.07
C=CCC1NCCc2c(Br)cccc21.Cl (centres undefined) 1.43
S=C1COC(c2ccc(Br)cc2)N1c1ccc(Br)cc1 (centres undefined) 1.01
c1cnc2c(c1)NC1(CCCCC1)N2 1.71
CC1(C)C2CCC1(CS(=O)(=O)NCC13CC4CC(CC(C4)C1)C3)C(=O)C2 (centres undefined) 1.22
CC1(C)CC(=O)c2sc(N)nc2C1 1.13
S=c1n(CN2CCC(c3ccccc3)C2)nc(Cc2ccccc2)n1-c1ccccc1 (centres undefined) 1.14
O=C1NC(=S)N/C1=C/c1cc(Br)c(Sc2ccc(Cl)cc2)o1 1.47
Fc1ccc2[nH]c3nc4ccccc4nc3c2c1 1.44
Nc1ncnc2sc3c(c12)CCCC3 1.08
COc1ccc2c(c1)S(=O)(=O)C(C)=C2N 1.41
[N+](c1cc(N\N=C(\C#N)C#N)ccc1Cl)([O-])=O 1.01
Oc1ccc2cc(O)ccc2c1 1.01
c1csc(Cc2nc(-c3cccs3)no2)c1 0.726
O=[N+]([O-])c1ccc(-n2cc(-c3ccccc3)nc/c2=N\N(Cc2ccccc2)c2ccccc2)cc1 1.5
O=C(O)C(C(=O)O)C1C=CCC1 (centres undefined) 1.18
FC(F)(F)c1ccc(/C=N/n2c(S)nnc2-c2cccnc2)cc1 1.4
CCSc1sc(CC)c(C(=O)O)c1C=O 1.22
Cc1cc(S(=O)c2cc(C)cc(C(C)(C)C)c2O)c(O)c(C(C)(C)C)c1 0.825
CS(=O)(=O)N/N=C/c1cc(Cl)cc(Br)c1O 1.5
O=CC1C(=O)Nc2ccccc21 (centres undefined) 1.28
CC(C)Cc1nc(C#N)c(N2CCOCC2)o1 1.08
Nc1nccc(-c2ccc(Cl)cc2Cl)n1 0.937
c1csc(CNCCNCc2cccs2)c1 0.696
